Results are given in words; binding and its absence hold for the method and conditions named. Binding calls can cover weak binding; strength is not graded here. In cells and extracts the contact can be indirect.
B1: PTK7 (SEQ ID No:80) (receptor)
chain: AIVFIKQPSSQDALQGRRALLRCEVEAPGPVHVYWLLDGAPVQDTERRFAQGSSLSFAAVDPLQDSGTFQCVARDDVTGEEARSANASFNIKWIEAGPVVLKHPASEAEIQPQTQVKLRCHIDGHPRPTYQWFRDGTPLSDGQSNHTVSSKERNLTLRPAGPEHSGLYSCCAHSAFSQACSSQNFTLSIADESFARVVLAPQDVVVARYEEAMFHCQFSAQPPPSLQWLFEDETPITNRSRPPHLRRATVFANGSLLLTQVRPRNAGIYRCIGQGQRGPPIILEATLHLAEIEDMPLFEPRVFTAGSEERVTCLPPKGLPEPSVWWEHAGVRLPTHGRVYQKGHELVLANIAESDAGVYTCHAANLAGQRRQDVNITVATVPSWLKKPQDSQLEEGKPGYLDCLTQATPKPTVVWYRNQMLISEDSRFEVFKNGTLRINSVEVYDGTWYRCMSSTPAGSIEAQAVLQVLEKLKFTPPPQPQQCMGFDKEATVPCSATGREKPTIKWERADGSSLPEWVTDNAGTLHFARVTRDDAGNYTCIASNGPQGQIRAHVQLTVAVFITFKVEPERTTVYQGHTALLQCEAQGDPKPLIQWKGKDRILDPTKLGPRMHIFQNGSLVIHDVAPEDSGRYTCIAGNSCNIKHTEAPLYVVDKPVPEESEGPGSPPPYKMIQTIGLSVGAAVAYIIAVLGLMFYCKKRCKAKRLQKQPEGEEPEMECLNGGPLQNGQPSAEIQEEVALTSLGSGPAATNKRHSTSDKMHFPRSSLQPITTLGKSEFGEVFLAKAQGLEEGVAETLVLVKSLQSKDEQQQLDFRRELEMFGKLNHANVVRLLGLCREAEPHYMVLEYVDLEDLKQFLRISKSKDEKLKSQPLSTKQKVALCTQVALGMEHLSNNRFVHKDLAARNCLVSAQRQVKVSALGLSKDVYNSEYYHFRQAWVALRWMSPEAILEGDFSTKSDVWASGVLMWEVFTHGEMPHGGQADDEVLADLQAGKARLPQPEGCPSKLYRLMQRCWALSPKDRPSFSEIASALGDSTVDSKP
B2: SIM TO Y71H10A. 2.P. (protein)
chain: MVSIPEYYEGKNVLLTGATGFLGKVLLEKLLRSCPKVNSVYVLVRQKAGQTPQERVEEVLSGKLFDRLRDENPDFREKIIAINSELTQPKLALSEEDKEVIIDSTNIIFHCAATVRFNENLRDAVQLNVIATRQLILLAQQMKNLEVFMHVSTAYAYCNRKHIDEVVYPPPVDPKKLIDSLEWMDDGLVNDITPKLIGDRPNTYIYTKALAEYVVQQEGAKLNVAIVRPSIVGASWKEPFPGWIDNFNGPSGLFIAAGKGILRTIRASNNALADLVPVDVVVNMSLAAAWYSGVNRPRNIMVYNCTTGSTNPFHWGEVEYHVISTFKRNPLEQAFRRPNVNLTSNHLLYHYWIAVSHKAPAFLYDIYLRMTGRSPRCPSFKFNSNSLSHHYRKGVSHRVSALLLDCTHVDRSETATFNIDVRQLHWAEYIENYCLGTKKYVLNEEMSGLPAARKHLNKTLFSLFHTALCHGKLTFVDDTFGFPCLLASGGPLLSVSLHFSAYVYSQIHLAFILRDLGSHSAPSLASLAGPRELTVGSLLDREWRQIKTDDFELGKSAGEVDLEGADIEGCLLATSPAVRQQALLQRGVQWYISIPTTQETVAMEMQI
B3: STX10 (protein)
chain: SLEDPFFVVRGEVQKAVNTARGLYQRWCELLQESAAVGREELDWTTNELRNGLRSIEWDLEDLEETIGIVEANPGKFKLPAGDLQERKVFVERMREAVQEMKDHMVSPTAVAFLERNNREILAGKPAAQKSPSDLLDASAVSATSRYIEEQQATQQLIMDEQDQQLEMVSGSIQVLKHMSGRVGEELDEQGIMLDAFAQEMDHTQSRMDGVLRKLAKVSHMTSDRRQWCAIAVLVGVLLLVLILLFSL
B4: Thioredoxin domain-containing protein (protein)
chain: RRSNVRVITDENWRELLEGDWMIEFYAPWCPACQNLQPEWESFAEWGEDLEVNIAKVDVTEQPGLSGRFIITALPTIYHCKDGEFRRYQGPRTKKDFINFISDKEWKSIEPVSSWFGPGSVLMSSMSALFQLSMWIRTCHNYFIEDLGLPVWGSYTVFALATLFSGLLLGLCMIFVADCLCPSKRRRPQPYPYPSKKLLSESAQPLKKVEEEQEADEEDVSEEEAESKEGTNKDFPQNAIRQRSLGPSLATDKS
B5: calsyntenin 1 (SEQ ID No:6) (protein)
chain: ARVNKHKPWLEPTYHGIVTENDNTVLLDPPLIALDKDAPLRFAGEICGFKIHGQNVPFDAVVVDKSTGEGVIRSKEKLDCELQKDYSFTIQAYDCGKGPDGTNVKKSHKATVHIQVNDVNEYAPVFKEKSYKATVIEGKQYDSILRVEAVDADCSPQFSQICSYEIITPDVPFTVDKDGYIKNTEKLNYGKEHQYKLTVTAYDCGKKRATEDVLVKISIKPTCTPGWQGWNNRIEYEPGTGALAVFPNIHLETCDEPVASVQATVELETSHIGKGCDRDTYSEKSLHRLCGAAAGTAELLPSPSGSLNWTMGLPTDNGHDSDQVFEFNGTQAVRIPDGVVSVSPKEPFTISVWMRHGPFGRKKETILCSSDKTDMNRHHYSLYVHGCRLIFLFRQDPSEEKKYRPAEFHWKLNQVCDEEWHHYVLNVEFPSVTLYADGTSHEPFSVTEDYPLHPSKIETQLVVGACWQEFSGVENDNETEPVTVACAGGDLHMTQFFRGNLAGLTLRSGKLADKKVIDCLYTCKEGLDLQVLEDSGRGVQIQAHRSQLVLTLEGEDLGELDKAMQHISYLNSRQFPTPGIRRLKITSTIKCFNEATCISVPPVDGYVMVLQPEEPKISLSGVHHFARAASEFESSEGVFLFPELRIISTITREVEPEGDGAEDPTVQESLVSEEIVHDLDTCEVTVEGEELNHEQESLEVDMARLQQKGIEVSSSELGMTFTGVDTMASYEEVLHLLRYRNWHARSLLDRKFKLICSELNGRYISNEFKVEVNVIHTANPMEHANHMAAQPQFVHPEHRSFVDLSGHNLANPHPFAVVHSTATVVIVVCVSSLVFMIILGVFRIRAAHRRTMRDQDTGKENEMDWDDSALTITVNPMETYEDQHSSEEEEEEEEEEESEDGEEEDDITSAESESSEEEEGEQGDPQNATRQQQLEWDDSTLSY
B6: DSCD75 (protein)
chain: LLDVWYLVRLPCAVLRARLLQPRVRDLLAEQRFPGRVLPSDLDLLLHMNNARYLREADFARVAHLTRCGVLGALRELRAHTVLAASCARHRRSLRLLEPFEVRTRLLGWDDRAFYLEARFVSLRDGFVCALLRFRQHLLGTSPERVVQHLCQRRVEPPELPADLQHWISYNEASSQLLRMESGLSDVTKDQ
B7: FADS2 (delta-6-desaturase) (enzyme)
chain: MGKGGNQGEGAAEREVSVPTFSWEEIQKHNLRTDRWLVIDRKVYNITKWSIQHPGGQRVIGHYAGEDATDAFRAFHPDLEFVGKFLKPLLIGELAPEEPSQDHGKNSKITEDFRALRKTAEDMNLFKTNHVFFLLLLAHIIALESIAWFTVFYFGNGWIPTLITAFVLATSQAQAGWLQHDYGHLSVYRKPKWNHLVHKFVIGHLKGASANWWNHRHFQHHAKPNIFHKDPDVNMLHVFVLGEWQPIEYGKKKLKYLPYNHQHEYFFLIGPPLLIPMYFQYQIIMTMIVHKNWVDLAWAVSYYIRFFITYIPFYGILGALLFLNFIRFLESHWFVWVTQMNHIVMEIDQEAYRDWFSSQLTATCNVEQSFFNDWFSGHLNFQIEHHLFPTMPRHNLHKIAPLVKSLCAKHGIEYQEKPLLRALLDIIRSLKKSGKLWLDAYLHK
B8: GPR49 (receptor)
chain: GSSPRSGVLLRGCPTHCHCEPDGRMLLRVDCSDLGLSELPSNLSVFTSYLDLSMNNISQLLPNPLPSLRFLEELRLAGNALTYIPKGAFTGLYSLKVLMLQNNQLRHVPTEALQNLRSLQSLRLDANHISYVPPSCFSGLHSLRHLWLDDNALTEIPVQAFRSLSALQAMTLALNKIHHIPDYAFGNLSSLVVLHLHNNRIHSLGKKCFDGLHSLETLDLNYNNLDEFPTAIRTLSNLKELGFHSNNIRSIPEKAFVGNPSLITIHFYDNPIQFVGRSAFQHLPELRTLTLNGASQITEFPDLTGTANLESLTLTGAQISSLPQTVCNQLPNLQVLDLSYNLLEDLPSFSVCQKLQKIDLRHNEIYEIKVDTFQQLLSLRSLNLAWNKIAIIHPNAFSTLPSLIKLDLSSNLLSSFPITGLHGLTHLKLTGNHALQSLISSENFPELKVIEMPYAYQCCAFGVCENAYKISNQWNKGDNSSMDDLHKKDAGMFQAQDERDLEDFLLDFEEDLKALHSVQCSPSPGPFKPCEHLLDGWLIRIGVWTIAVLALTCNALVTSTVFRSPLYISPIKLLIGVIAAVNMLTGVSSAVLAGVDAFTFGSFARHGAWWENGVGCHVIGFLSIFASESSVFLLTLAALERGFSVKYSAKFETKAPFSSLKVIILLCALLALTMAAVPLLGGSKYGASPLCLPLPFGEPSTMGYMVALILLNSLCFLMMTIAYTKLYCNLDKGDLENIWDCSMVKHIALLLFTNCILNCPVAFLSFSSLINLTFISPEVIKFILLVVVPLPACLNPLLYILFNPHFKEDLVSLRKQTYVWTRSKHPSLMSINSDDVEKQSCDSTQALVTFTSSSITYDLPPSSVPSPAYPVTESCHLSSVAFVPCL
B9: ITM2C (protein)
chain: MVKISFQPAVAGIKGDKADKASASAPAPASATEILLTPAREEQPPQHRSKRGGSVGGVCYLSMGMVVLLMGLVFASVYIYRYFFLAQLARDNFFRCGVLYEDSLSSQVRTQMELEEDVKIYLDENYERINVPVPQFGGGDPADIIHDFQRGLTAYHDISLDKCYVIELNTTIVLPPRNFWELLMNVKRGTYLPQTYIIQEEMVVTEHVSDKEALGSFIYHLCNGKDTYRLRRRATRRRINKRGAKNCNAIRHFENTFVVETLICGVV
B10: LAPTM4B (protein)
chain: MVNYAWAGRSQRKLWWRSVAVLTCKSVVRPGYRGGLQARRSTLLKTCARARATAPGAMKMVAPWTRFYSNSCCLCCHVRTGTILLGVWYLIINAVVLLILLSALADPDQYNFSSSELGGDFEFMDDANMCIAIAISLLMILICAMATYGAYKQRAAWIIPFFCYQIFDFALNMLVAITVLIYPNSIQEYIRQLPPNFPYRDDVMSVNPTCLVLIILLFISIILTFKGYLISCVWNCYRYINGRNSSDVLVYVTSNDTTVLLPPYDDATVNGAAKEPPPPYVSA

Molecular target: TAP-tagged BACE1 (Homo sapiens (Human))
Test: TAP purification of tagged bait, LC-MS/MS; novel interactor

| Binder | binding |
| --- | --- |
| B1 | binds |
| B2 | binds |
| B3 | binds |
| B4 | binds |
| B5 | binds |
| B6 | binds |
| B7 | binds |
| B8 | binds |
| B9 | binds |
| B10 | binds |
